From patent US20070134231A1, “Method for prolonging activity of autodegradable enzymes and compositions thereof” (priority 2005, published 2007)

Protein sequences, listed by entry. Tags and fused reporters are not part of them. Residues count along the entry.
UniProt P00747, 97-580 limits assumed: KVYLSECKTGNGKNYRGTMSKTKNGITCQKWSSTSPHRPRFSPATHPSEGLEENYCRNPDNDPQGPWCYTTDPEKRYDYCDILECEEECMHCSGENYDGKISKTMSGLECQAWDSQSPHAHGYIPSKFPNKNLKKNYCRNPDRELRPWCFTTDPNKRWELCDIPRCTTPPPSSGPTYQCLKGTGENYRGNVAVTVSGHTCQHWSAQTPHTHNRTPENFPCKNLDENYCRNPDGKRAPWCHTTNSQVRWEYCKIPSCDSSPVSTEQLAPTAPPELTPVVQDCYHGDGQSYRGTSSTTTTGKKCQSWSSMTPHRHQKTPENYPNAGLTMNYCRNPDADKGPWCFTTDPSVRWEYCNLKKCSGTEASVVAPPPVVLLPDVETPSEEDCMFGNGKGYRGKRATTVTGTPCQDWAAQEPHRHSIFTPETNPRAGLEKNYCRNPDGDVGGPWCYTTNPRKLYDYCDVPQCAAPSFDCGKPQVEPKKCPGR
UniProt P00747, 581-810 limits assumed: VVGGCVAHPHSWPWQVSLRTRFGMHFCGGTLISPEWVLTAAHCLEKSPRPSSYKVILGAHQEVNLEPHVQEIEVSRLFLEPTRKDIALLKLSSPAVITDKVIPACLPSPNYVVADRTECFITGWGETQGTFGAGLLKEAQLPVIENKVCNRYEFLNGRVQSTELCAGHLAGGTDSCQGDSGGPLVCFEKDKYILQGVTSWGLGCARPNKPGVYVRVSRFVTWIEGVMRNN

Biological target: T1, human plasmin (Homo sapiens, UniProt P00747)
T1 construct: which cleave a single-chain plasminogen molecule at the Arg^560 -Val^561 peptide bond, producing active plasmin; purchased Talecris, Inc. (Research Triangle Park, North Carolina)
Assay: Plasmin precipitation study in buffer solutions (PBS, pH of about 7.4)
Type: physicochemical
Details: single additive, plasmin 1 mg/ml, observed within 2 hours
Experimental: This acidified, lyophilized plasmin was reconstituted with 0.9% (by weight) NaCl solution to a concentration of 10 mg/ml. […] Combinations of ε-aminocaproic acid and gelatin or glycerin were also tested. The concentration of plasmin in the additive-containing buffer was 1 mg/ml.

How did the “Minimum Concentration of Additive Required to Prevent Visually Observed Plasmin Precipitation” value turn out when `Cl.NCCC[C@H](N)C(=O)O` [L-ornithine hydrochloride] was run?
Its value is 50 mM.
